PubChem BioAssay AID1053208 – Peter MacCallum Cancer Centre, 2014
Screen: 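Genes whose silencing cuts survival of bone tumour cells only with doxorubicin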 (primary screen). Cells: mouse osteosarcoma cells, early-passage culture from an engineered mouse model of fibroblastic bone tumour. Reagent: siRNA pool against mouse genes, 40 nM. Duration: about 120 h (48 h before drug, then 72 h with drug). Conditions: doxorubicin 100 nM for 72 h, roughly 30-40% inhibitory dose. Detection: 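Luminescent ATP signal taken as viability with or without 100 nM doxorubicin for 72 h; mean of two wells set against non-targeting siRNA and turned into robust z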. Reading the numbers: viability z-score with doxorubicin and doxorubicin viability vs non-targeting: higher = more viable cells under doxorubicin; viability z-score without drug: higher = more viable cells with knock-down alone; z-score of drug to no-drug ratio: higher = less drug sensitisation by knock-down. Active means: 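Called active if knock-down leaves viability unchanged without drug (z within -2 to 2) but lowers it with doxorubicin (z at or under -2)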.
This is an unselected part of about 17,000 reagents tested. 788 of them (4.7%) count as active. 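Calls rest on z-score classes alone; an extra cut-off of viability at most 70% of control was not applied to them.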 A number with no mark means an inactive call.

Target gene,combined z-score class,viability z-score with doxorubicin,viability z-score without drug,z-score of drug to no-drug ratio,doxorubicin viability vs non-targeting
"Ppp1r37 (protein phosphatase 1, regulatory subunit 37)",no change with or without drug,1.12,0.17,1.12,1.04
Or1e22 (olfactory receptor family 1 subfamily E member 22),no change with or without drug,-0.67,-0.17,-0.45,0.88
B430108F07RIK,no change with or without drug,0.22,1.18,-0.45,0.96
Tex15 (testis expressed gene 15 meiosis and synapsis associated),high cell count with doxorubicin only,2.81,1.85,1.57,1.19
Dmp1 (dentin matrix protein 1),low cell count with doxorubicin only (active),-2.14,1.85,-3.04,0.75
Prmt1 (protein arginine N-methyltransferase 1),no change with or without drug,-0.34,-0.17,-0.11,0.91
Gpalpp1 (GPALPP motifs containing 1),no change with or without drug,0.79,0.17,0.79,1.01
"Il4ra (interleukin 4 receptor, alpha)",no change with or without drug,1.46,-0.67,2.25,1.07
Arf6 (ARF GTPase 6),low cell count with doxorubicin only (active),-2.25,-1.52,-1.35,0.74
Or2ag19 (olfactory receptor family 2 subfamily AG member 19),no change with or without drug,-1.69,-1.01,-1.01,0.79
Veph1 (ventricular zone expressed PH domain-containing 1),no change with or without drug,-0.22,-1.18,0.79,0.92
Srxn1 (sulfiredoxin 1 homolog (S. cerevisiae)),no change with or without drug,1.69,-0.17,2.02,1.09
"Ap3m1 (adaptor-related protein complex 3, mu 1 subunit)",no change with or without drug,1.01,-0.17,1.35,1.03
"Brpf1 (bromodomain and PHD finger containing, 1)",low cell count without drug only,-1.8,-2.19,-0.34,0.78
"Tor1b (torsin family 1, member B)",no change with or without drug,0,-0.84,0.67,0.94
Twnk (twinkle mtDNA helicase),no change with or without drug,0,-0.51,0.45,0.94
Kif2b (kinesin family member 2B),no change with or without drug,-0.67,-0.84,0,0.88
Scrib (scribbled planar cell polarity),no change with or without drug,0.79,-0.51,1.35,1.01
Gm4861 (predicted gene 4861),no change with or without drug,0.9,0.17,0.9,1.02
Wnt10a (WNT family member 10A),no change with or without drug,0,1.18,-0.67,0.94

Copied from the list:
Brpf1 (bromodomain and PHD finger containing, 1), doxorubicin viability vs non-targeting: 0.78
Scrib (scribbled planar cell polarity), z-score of drug to no-drug ratio = 1.35
